According to PMC12425082:
No constants are given. Whether binding was seen depends on the method and setting. Binding seen in cells or lysates may run through a third protein. Sequences can lack the tags named with a protein.

Molecular target: T1, GFP-tagged Munc13-4 (UniProt Q70J99)
T1 sequence: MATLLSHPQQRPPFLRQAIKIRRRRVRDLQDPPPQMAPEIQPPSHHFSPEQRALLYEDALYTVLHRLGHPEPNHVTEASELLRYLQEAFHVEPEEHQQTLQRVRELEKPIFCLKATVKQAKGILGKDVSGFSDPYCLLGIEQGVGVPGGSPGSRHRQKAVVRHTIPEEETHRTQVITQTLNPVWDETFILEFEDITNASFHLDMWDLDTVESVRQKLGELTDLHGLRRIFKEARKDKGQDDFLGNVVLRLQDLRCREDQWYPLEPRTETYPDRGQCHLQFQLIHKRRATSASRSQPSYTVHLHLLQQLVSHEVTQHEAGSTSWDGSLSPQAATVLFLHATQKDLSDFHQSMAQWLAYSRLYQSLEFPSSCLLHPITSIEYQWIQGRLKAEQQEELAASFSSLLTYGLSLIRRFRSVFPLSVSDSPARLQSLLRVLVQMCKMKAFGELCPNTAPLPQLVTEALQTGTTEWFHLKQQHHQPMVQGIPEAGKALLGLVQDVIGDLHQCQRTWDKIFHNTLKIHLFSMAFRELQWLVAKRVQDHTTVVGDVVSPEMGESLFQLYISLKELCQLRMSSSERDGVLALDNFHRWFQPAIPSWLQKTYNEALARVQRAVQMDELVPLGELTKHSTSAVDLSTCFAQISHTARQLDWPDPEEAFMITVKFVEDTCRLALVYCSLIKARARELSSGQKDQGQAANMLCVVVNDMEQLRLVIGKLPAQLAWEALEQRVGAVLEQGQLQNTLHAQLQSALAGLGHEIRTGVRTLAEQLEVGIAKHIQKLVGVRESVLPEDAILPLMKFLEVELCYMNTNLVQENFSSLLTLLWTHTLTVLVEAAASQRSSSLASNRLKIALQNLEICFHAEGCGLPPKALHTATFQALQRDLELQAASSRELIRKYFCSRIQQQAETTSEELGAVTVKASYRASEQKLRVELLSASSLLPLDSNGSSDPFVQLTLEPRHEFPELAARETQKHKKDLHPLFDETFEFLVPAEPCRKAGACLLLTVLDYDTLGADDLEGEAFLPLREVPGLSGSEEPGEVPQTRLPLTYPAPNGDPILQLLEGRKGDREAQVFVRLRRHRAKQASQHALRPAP
Experiment: co-IP; lysates of BON cells expressing GFP or GFP-Munc13-4 precipitated with GFP nanobodies; western blotting of the pull-downs with antibodies to the partners

binding: no binding
Substance: Rab7 (human (endogenous in BON))
